Source: publication PMC12431657, “Discovery and mechanistic insights of dibenzoylmethane as a broad spectrum inhibitor of coronavirus” (PLOS Pathogens, 2025)
Structures can show the parent of a compound that is named as a salt. Where two headings read alike, the source gives them in different places. In all, about 3,300 compounds went through this assay and about 60 (2%) showed an effect of 50% or more. Some of the results follow.

Test system: HCoV-OC43
Design: species or system RD; HTS, protection from HCoV-OC43 induced cell death, luminescent cell viability (CellCounting-Lite 2.0), inhibition rate
Conditions: 24 h post infection, 1 h compound pre-incubation, 10 µM, inhibitor

| SMILES | OC43 Inhibition rate [%] | OC43 Inhibition rate (OC43 Inhibition rate, 24 h) [%] |
| --- | --- | --- |
| CC(C)=CC[C@@H](OC(=O)C(C)C)C1=CC(=O)c2c(O)ccc(O)c2C1=O [Isobutylshikonin] | 19.2 | – |
| NC(Cc1c[nH]c2ccccc12)C(=O)O (racemic) [DL-Tryptophan] | 1.2 | – |
| COc1ccccc1/C=C/C(=O)O [2-Methoxycinnamic acid] | -1.3 | – |
| CCCCCCCC/C=C\CCCCCCCC(=O)OCC [Ethyl oleate] | -0.1 | – |
| O=C1CCNC(=O)N1 [Dihydrouracil] | -1.1 | – |
| CCCCCCCCCCCCC(=O)OC [Methyl tridecanoate] | -0.1 | – |
| CNC(=S)NC [N,N'-Dimethylthiourea] | 0.6 | – |
| NC(=O)CC[C@H](N)C(=O)O [L-Glutamine] | 2.3 | – |
| O=C(O)C1CCCCN1 (stereo not drawn) [Pipecolic acid] | -1.6 | – |
| O=[N+]([O-])c1ccc(O)c(O)c1 [4-Nitrocatechol] | -1 | – |
| COc1cc(O)cc2c1C(=O)C[C@@H](c1ccccc1)O2 [Alpinetin] | 2.1 | – |
| C=C[C@H]1CN2CC[C@H]1C[C@@H]2[C@@H](O)c1ccnc2ccccc12 [Cinchonine] | 0.2 | – |
| COC1=CC(=O)c2ccccc2C1=O [Lawsone methyl ether] | -10.6 | – |
| CCCCCCCC(O)CC(=O)O (stereo not drawn) [3-Hydroxycapric acid] | 6.8 | – |
| C[C@H]1O[C@@H](n2cnc3c(N)ncnc32)[C@H](O)[C@@H]1O [5'-Deoxyadenosine] | -0.3 | – |
| CC=CC(=O)C1=C(C)CCCC1(C)C [β-Damascone] | -0.1 | – |
| OC[C@H]1O[C@@H](Oc2c[nH]c3ccccc23)[C@H](O)[C@@H](O)[C@@H]1O [Indican] | -0.5 | – |
| Cn1cnc(CCN)c1 [1-Methylhistamine (dihydrochloride)] | 4 | – |
| COc1ccc(C(C)=O)cc1O [3-Hydroxy-4-methoxyacetophenone] | -0.4 | – |
| CC(C)(CC(=O)O)CC(=O)O [3,3-Dimethylglutaric acid] | -0.3 | – |
| O=C(/C=C/c1ccc(O)c(O)c1)O[C@@H]1CC(C(=O)O)=C[C@@H](O)[C@H]1O [5-O-Caffeoylshikimic acid] | -4.3 | – |
| COC(=O)C[C@](O)(CCCC(C)(C)O)C(=O)O[C@@H]1C(OC)=C[C@]23CCCN2CCc2cc4c(cc2[C@H]13)OCO4 [Homoharringtonine] | 0.5 | – |
| COc1cc(O)cc(OC)c1 [3,5-Dimethoxyphenol] | -0.4 | – |
| C[C@@H](CO[C@@H]1O[C@H](CO)[C@@H](O)[C@H](O)[C@H]1O)[C@@H]1CC[C@@]2(CC[C@]3(C)[C@H](CC[C@@H]4[C@@]5(C)CC[C@H](O[C@@H]6O[C@H](CO)[C@@H](O)[C@H](O)[C@H]6O[C@@H]6O[C@H](CO)[C@@H](O)[C@H](O)[C@H]6O)[C@@](C)(CO[C@@H]6O[C@H](CO)[C@@H](O)[C@H](O)[C@H]6O)[C@@H]5CC[C@]43C)[C@H]2O)CO1 [Hosenkoside K] | -0.2 | – |
| O[C@H]1[C@H](O)[C@@H](O)[C@H](O)[C@@H](O)[C@H]1O [i-Inositol] | 3.1 | – |
| C=C(C)[C@@H]1CC[C@]2(CO)CC[C@]3(C)[C@H](CC[C@@H]4[C@@]5(C)CC[C@H](O)C(C)(C)[C@@H]5CC[C@]43C)[C@@H]12 [Betulin] | -0.2 | – |
| COc1cc(C(=O)O)ccc1O [Vanillic acid] | 0.1 | – |
| CCCCC[C@H](O)/C=C/[C@H]1[C@H](O)CC(=O)[C@@H]1C/C=C\CCCC(=O)O [Prostaglandin E2] | 0.3 | – |
| O=C1C=CC[C@@H]2[C@H]3CCCN4CCC[C@@H](CN12)[C@@H]34 [Sophocarpine (monohydrate)] | – | 0.3 |
| CC(C)=CC1CC(O)(C2CCC3(C)C2CCC2C4(C=O)CCC(OC5OCC(O)C(OC6OCC(O)C(O)C6O)C5OC5OC(C)C(O)C(O)C5O)C(C)(C)C4CCC23C)C(O)O1 (stereo not drawn) [Gypenoside A] | 0.6 | – |

Reprinted from above, 2 compounds:

| SMILES | OC43 Inhibition rate [%] | OC43 Inhibition rate (OC43 Inhibition rate, 24 h) [%] |
| --- | --- | --- |
| COc1cc(C(=O)O)ccc1O [Vanillic acid] | 0.1 | – |
| CCCCC[C@H](O)/C=C/[C@H]1[C@H](O)CC(=O)[C@@H]1C/C=C\CCCC(=O)O [Prostaglandin E2] | 0.3 | – |
